Measured data: PubChem BioAssay AID1259308 (NCATS, 2017)
In all, the deposit lists about 59,000 reagents; shown is a random part of them. Of all reagents, about 1,510 (2.6%) got an active call. 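Calls use total luciferase alone and ignore viability, so some active siRNAs may act by altering cell number.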 Unmarked entries are inactive. The numbers tell different reagents against one gene apart.

- Screen: 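Genes whose loss raises luciferase production in HEK293 cells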 (primary screen)
- Cells: human HEK293 embryonic kidney cells stably expressing firefly luciferase (HEK-CMV-Luc2-Hygro)
- Knock-down reagent: single siRNA against human genes, 0.8 pmol siRNA per well
- Duration: 72 h
- Measured: 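Reporter luminescence and viable-cell signal on separate replicate plates, given as percent of non-targeting control and median/MAD z-scores, plus per-cell luciferase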
- Scale: total luciferase, z-score and total luciferase, % of control: higher = more reporter protein produced; luciferase per cell, z-score: higher = more reporter output per viable cell; viable cells, % of control: higher = more viable cells
- Hit rule: 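An siRNA counts as active if its total luciferase robust z-score exceeds 3; genes with two or more such siRNAs out of three were retested with fresh siRNAs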
- Calls: active = raised luciferase; inactive = no rise

gene | siRNA no. | total luciferase, z-score | total luciferase, % of control | luciferase per cell, z-score | viable cells, % of control
ADGRA2 (adhesion G protein-coupled receptor A2) | 1 | -0.636 | 69.2 | -0.742 | 94.1
ADGRA2 (adhesion G protein-coupled receptor A2) | 2 | -0.798 | 66 | -1.05 | 97.3
ADGRA2 (adhesion G protein-coupled receptor A2) | 3 | -1.25 | 57 | -1.26 | 88.7
SNRK (SNF related kinase) | 1 | 0.0395 | 82.7 | 0.0713 | 90.7
SNRK (SNF related kinase) | 2 | -1.3 | 56 | 0.193 | 59.5
SNRK (SNF related kinase) | 3 | 1.41 | 110 | 0.683 | 103
CFAP69 (cilia and flagella associated protein 69) | 1 | 1.1 | 104 | 0.8 | 93.9
CFAP69 (cilia and flagella associated protein 69) | 2 | -0.334 | 75.2 | 0.352 | 76.7
CFAP69 (cilia and flagella associated protein 69) | 3 | -0.171 | 78.5 | -0.797 | 108
GNG11 (G protein subunit gamma 11) | 1 | -0.424 | 73.5 | -0.41 | 91.4
GNG11 (G protein subunit gamma 11) | 2 | 1.14 | 105 | 0.826 | 94
GNG11 (G protein subunit gamma 11) | 3 | -0.333 | 75.3 | -0.17 | 88
PTPRB (protein tyrosine phosphatase receptor type B) | 1 | -0.037 | 81.2 | -0.413 | 101
PTPRB (protein tyrosine phosphatase receptor type B) | 2 | -1.28 | 56.4 | -1.41 | 91.3
PTPRB (protein tyrosine phosphatase receptor type B) | 3 | 0.324 | 88.3 | -0.412 | 110
DNAJC15 (DnaJ heat shock protein family (Hsp40) member C15) | 1 | 0.0497 | 82.9 | -0.368 | 102
DNAJC15 (DnaJ heat shock protein family (Hsp40) member C15) | 2 | 0.26 | 87.1 | 0.807 | 78.6
DNAJC15 (DnaJ heat shock protein family (Hsp40) member C15) | 3 | -0.71 | 67.8 | -0.89 | 95.7
C9orf40 (chromosome 9 open reading frame 40) | 1 | -1.11 | 59.8 | -0.864 | 83.8
C9orf40 (chromosome 9 open reading frame 40) | 2 | -0.318 | 75.6 | 0.0645 | 83
C9orf40 (chromosome 9 open reading frame 40) | 3 | 0.722 | 96.3 | 0.297 | 99.5
IL1RN (interleukin 1 receptor antagonist) | 1 | -0.313 | 75.7 | -0.731 | 102
IL1RN (interleukin 1 receptor antagonist) | 2 | -0.586 | 70.2 | -0.502 | 89.6
IL1RN (interleukin 1 receptor antagonist) | 3 | -0.623 | 69.5 | -0.146 | 80.7
FKBP1B (FKBP prolyl isomerase 1B) | 1 | 0.427 | 90.4 | 1.44 | 69.1
FKBP1B (FKBP prolyl isomerase 1B) | 2 | -0.964 | 62.7 | -1.05 | 92.3
FKBP1B (FKBP prolyl isomerase 1B) | 3 | 0.0693 | 83.3 | 0.0764 | 91.2
CD79A (CD79a molecule) | 1 | 2.6 | 134 | 1.92 | 90.1
CD79A (CD79a molecule) | 2 | 0.477 | 91.4 | 0.568 | 87.9
CD79A (CD79a molecule) | 3 | 3.13 (active) | 144 | 3.12 | 70.8
CEACAM1 (CEA cell adhesion molecule 1) | 1 | -0.385 | 74.2 | -0.6 | 97.2
CEACAM1 (CEA cell adhesion molecule 1) | 2 | 0.575 | 93.3 | 1.32 | 73.6
CEACAM1 (CEA cell adhesion molecule 1) | 3 | -0.11 | 79.7 | 1.24 | 64.2
GSTK1 (glutathione S-transferase kappa 1) | 1 | 0.457 | 91 | 1.51 | 68.3
GSTK1 (glutathione S-transferase kappa 1) | 2 | -0.2 | 77.9 | -0.389 | 96.5
GSTK1 (glutathione S-transferase kappa 1) | 3 | -0.132 | 79.3 | 0.14 | 85.4
SACK1A (scaffolding CK1 anchoring protein A) | 1 | 0.871 | 99.2 | 1.15 | 81.9
SACK1A (scaffolding CK1 anchoring protein A) | 2 | 0.907 | 99.9 | 1.35 | 78.3
SACK1A (scaffolding CK1 anchoring protein A) | 3 | 2.02 | 122 | 1.6 | 89.4
TRDN (triadin) | 1 | 0.319 | 88.2 | 0.407 | 88.6
TRDN (triadin) | 2 | -0.698 | 68 | -0.313 | 82.5
TRDN (triadin) | 3 | 0.887 | 99.5 | 0.962 | 86.3
CYP2J2 (cytochrome P450 family 2 subfamily J member 2) | 1 | -0.521 | 71.5 | -0.509 | 91.4
CYP2J2 (cytochrome P450 family 2 subfamily J member 2) | 2 | -0.988 | 62.2 | -1.81 | 112
CYP2J2 (cytochrome P450 family 2 subfamily J member 2) | 3 | -1.59 | 50.3 | -1.5 | 83.4
LOC649201 (retired record) | 1 | 1.36 | 109 | 0.825 | 98
LOC649201 (retired record) | 2 | -0.172 | 78.5 | 0.137 | 84.6
LOC649201 (retired record) | 3 | 0.978 | 101 | 1.98 | 67.2
DELEC1 (deleted in esophageal cancer 1) | 1 | 0.552 | 92.9 | 0.133 | 100
DELEC1 (deleted in esophageal cancer 1) | 2 | -0.91 | 63.8 | -0.677 | 85.2
DELEC1 (deleted in esophageal cancer 1) | 3 | -0.359 | 74.7 | 0.198 | 79.3
CYCS (cytochrome c, somatic) | 1 | 2.01 | 122 | 1.61 | 89.2
CYCS (cytochrome c, somatic) | 2 | 1.88 | 119 | 0.615 | 113
CYCS (cytochrome c, somatic) | 3 | 0.292 | 87.7 | 0.302 | 90.5
CD74 (CD74 molecule) | 1 | 0.61 | 94 | 2.34 | 56.8
CD74 (CD74 molecule) | 2 | 0.569 | 93.2 | 0.81 | 84.1
CD74 (CD74 molecule) | 3 | -0.598 | 70 | 0.241 | 73.4
TTC7B (tetratricopeptide repeat domain 7B) | 1 | -0.518 | 71.6 | -0.809 | 99
TTC7B (tetratricopeptide repeat domain 7B) | 2 | -0.524 | 71.5 | -0.773 | 97.9
TTC7B (tetratricopeptide repeat domain 7B) | 3 | -0.262 | 76.7 | -0.666 | 102
GATA2 (GATA binding protein 2) | 1 | 1.12 | 104 | 1.96 | 69.4
GATA2 (GATA binding protein 2) | 2 | 0.146 | 84.8 | 0.0271 | 94.1
GATA2 (GATA binding protein 2) | 3 | -1.14 | 59.2 | 0.0214 | 65.8
NEO1 (neogenin 1) | 1 | 1.24 | 106 | 1.25 | 85.6
NEO1 (neogenin 1) | 2 | 0.249 | 86.8 | 0.983 | 74.9
NEO1 (neogenin 1) | 3 | -1.67 | 48.6 | -1.49 | 80.4
ATG4C (autophagy related 4C cysteine peptidase) | 1 | -0.96 | 62.8 | -1.3 | 98.8
ATG4C (autophagy related 4C cysteine peptidase) | 2 | 0.208 | 86 | 0.352 | 87.6
ATG4C (autophagy related 4C cysteine peptidase) | 3 | 0.0179 | 82.2 | -0.142 | 95.4
LEMD1 (LEM domain containing 1) | 1 | -2.76 | 27 | -3.05 | 67.3
LEMD1 (LEM domain containing 1) | 2 | 0.732 | 96.5 | 0.725 | 89
LEMD1 (LEM domain containing 1) | 3 | -0.66 | 68.8 | -0.247 | 82
ACSM4 (acyl-CoA synthetase medium chain family member 4) | 1 | 1.88 | 119 | 3.04 | 59.9
ACSM4 (acyl-CoA synthetase medium chain family member 4) | 2 | -0.565 | 70.7 | 0.219 | 74.5
ACSM4 (acyl-CoA synthetase medium chain family member 4) | 3 | -0.751 | 66.9 | -0.583 | 87.2

Records listed so far marked active:
gene | siRNA no. | total luciferase, z-score | total luciferase, % of control | luciferase per cell, z-score | viable cells, % of control
CD79A (CD79a molecule) | 3 | 3.13 (active) | 144 | 3.12 | 70.8
